Record: PubChem BioAssay AID743121 (NCATS, 2013)
The deposit covers about 26,000 reagents; below is a random part of them. Over the whole deposit, 167 (0.63%) are marked active. 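Calls are per gene from RSA p-values that are not deposited; an individual active-marked siRNA can sensitise only weakly.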 Entries without a mark were called inactive. The numbers tell different reagents against one gene apart.

- Purpose: 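Partners whose loss is lethal together with topoisomerase I blockade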 (primary screen)
- Cell system: MDA-MB-231 cells, a human breast cancer line
- Knock-down reagent: single siRNA against human genes, 20 nM siRNA (0.8 pmol per well)
- Timing: 120 h (drug added 48 h after transfection, read 72 h later)
- Challenge: camptothecin 20 nM (about EC30) for 72 h; vehicle 0.1% DMSO in parallel plates
- Measurement: 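Cell viability by ATP luminescence (CellTiter-Glo) as % of non-targeting siRNA wells, and the log2 ratio of viability without drug over viability with camptothecin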
- Scale: log2 vehicle/camptothecin viability: higher = stronger sensitisation to camptothecin; viability with camptothecin and viability without drug: higher = more viable cells
- Active means: 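Each gene scored by redundant siRNA activity (RSA) over its individual siRNA ratios; a gene is called active at p < 0.001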

| gene | reagent | log2 vehicle/camptothecin viability | viability with camptothecin (% of control) | viability without drug (% of control) |
| --- | --- | --- | --- | --- |
| NSUN6 | 1 | -0.103 | 64.2 | 59.8 |
| NSUN6 | 2 | 0.0569 | 84.3 | 87.7 |
| NSUN6 | 3 | 0.0539 | 44.2 | 45.9 |
| NSUN6 | 4 | 0.114 | 37.1 | 40.2 |
| PPME1 | 1 | -0.0109 | 99.2 | 98.4 |
| PPME1 | 2 | -0.167 | 108 | 96.1 |
| PPME1 | 3 | 0.0552 | 21.2 | 22.1 |
| PPME1 | 4 | -0.301 | 42.4 | 34.4 |
| LIMK1 | 1 | -0.218 | 92.4 | 79.4 |
| LIMK1 | 2 | -0.143 | 108 | 97.7 |
| LIMK1 | 3 | 0.509 | 51.6 | 73.4 |
| LIMK1 | 4 | -0.0719 | 39.6 | 37.7 |
| TOP2B | 1 | -0.639 | 113 | 72.6 |
| TOP2B | 2 | -0.133 | 124 | 113 |
| TOP2B | 3 | -0.0723 | 86.5 | 82.3 |
| ABCB10 | 1 | -0.38 | 108 | 83 |
| ABCB10 | 2 | -0.151 | 38.9 | 35 |
| ABCB10 | 3 | 0.188 | 58.2 | 66.3 |
| WDR24 | 1 | -0.379 | 35.3 | 27.1 |
| WDR24 | 2 | -0.359 | 88.1 | 68.7 |
| WDR24 | 3 | -0.126 | 92.5 | 84.7 |
| WDR24 | 4 | 0.301 | 57.6 | 70.9 |
| NEURL1 | 1 | -0.471 | 24.9 | 18 |
| NEURL1 | 2 | -0.185 | 47.7 | 41.9 |
| NEURL1 | 3 | -0.148 | 94.4 | 85.2 |
| UCK2 | 1 | 0.131 | 48.9 | 53.5 |
| UCK2 | 2 | -0.215 | 85.5 | 73.7 |
| UCK2 | 3 | -0.68 | 106 | 66.1 |
| UCK2 | 4 | 0.128 | 94 | 103 |
| AURKA | 1 | -0.408 | 65.3 | 49.2 |
| AURKA | 2 | -0.271 | 103 | 85.7 |
| AURKA | 3 | -0.022 | 42.7 | 42.1 |
| AURKA | 4 | -0.381 | 66 | 50.7 |
| SERPINA12 | 1 | -0.149 | 108 | 97.4 |
| SERPINA12 | 2 | -0.0326 | 120 | 117 |
| SERPINA12 | 3 | -0.296 | 106 | 85.9 |
| SERPINA12 | 4 | 0.166 | 23.1 | 25.9 |
| PGAP1 | 1 | 0.0369 | 82.9 | 85 |
| PGAP1 | 2 | 0.00562 | 90.6 | 91 |
| PGAP1 | 3 | -0.344 | 99.9 | 78.7 |
| PHF23 | 1 | -0.16 | 85.4 | 76.4 |
| PHF23 | 2 | -0.431 | 70.6 | 52.4 |
| PHF23 | 3 | -0.0621 | 79.6 | 76.2 |

In a second layout: entries from further up.
gene	reagent	log2 vehicle/camptothecin viability	viability with camptothecin (% of control)	viability without drug (% of control)
NEURL1	1	-0.471	24.9	18
NEURL1	2	-0.185	47.7	41.9
NEURL1	3	-0.148	94.4	85.2
UCK2	1	0.131	48.9	53.5
UCK2	2	-0.215	85.5	73.7

Additional results follow:
| gene | reagent | log2 vehicle/camptothecin viability | viability with camptothecin (% of control) | viability without drug (% of control) |
| --- | --- | --- | --- | --- |
| PTGIR | 1 | 0.141 | 70 | 77.2 |
| PTGIR | 2 | 0.117 | 88.2 | 95.7 |
| PTGIR | 3 | 1.07 | 8.4 | 17.7 |
| PTGIR | 4 | 0.12 | 26.4 | 28.7 |
| ALKBH8 | 1 | -0.437 | 52 | 38.4 |
| ALKBH8 | 2 | 0.185 | 80.9 | 92 |
| ALKBH8 | 3 | -0.66 | 53.4 | 33.8 |
| ALKBH8 | 4 | -0.253 | 93.7 | 78.6 |
| VWF | 1 | -0.3 | 120 | 97.2 |
| VWF | 2 | -0.271 | 89.5 | 74.2 |
| VWF | 3 | 0.00342 | 85.6 | 85.8 |
| VWF | 4 | 0.331 | 41.8 | 52.6 |
| MORN2 | 1 | -0.348 | 70 | 55 |
| MORN2 | 2 | -0.186 | 34.4 | 30.2 |
| MORN2 | 3 | 0.154 | 93.7 | 104 |
| MORN2 | 4 | 0.00938 | 76.1 | 76.6 |
| MMP13 | 1 | -0.0981 | 85.6 | 80 |
| MMP13 | 2 | -0.912 | 54.6 | 29 |
| MMP13 | 3 | 0.0259 | 106 | 108 |
| MMP13 | 4 | -0.34 | 88.8 | 70.2 |
| COL10A1 | 1 | -0.356 | 67.5 | 52.7 |
| COL10A1 | 2 | -0.508 | 90.2 | 63.4 |
| COL10A1 | 3 | -0.285 | 123 | 101 |
| SLC25A20 | 1 | -0.0256 | 81.3 | 79.9 |
| SLC25A20 | 2 | -0.434 | 88.3 | 65.3 |
| SLC25A20 | 3 | 0.0727 | 37.8 | 39.8 |
